Counter-ions that a name gives are not always drawn. Some of the results follow. The calls rarely recur for the same compound in another form.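 Kinases were expressed as nanoluciferase fusions in K562 cells and luminescence was read every 4 h between 2 and 18 h as percent of control, DMSO set to 100% and a positive control to 0%. A time point counts as decreased when the signal drops significantly (2 sigma). The hit call is the authors' own, does not follow from the count of time points alone, and its rule is not shown.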
Target: MAP2K1 (UniProt Q02750)
Experiment: kinase-Nluc reporter destabilization hit call (1 = scored as downregulated) (binary); higher = compound decreases kinase abundance
Details: K562; 2-18 h

kinase-Nluc reporter destabilization hit call, inactive:
Cn1cc(Nc2nccc(N3C[C@H]4CC[C@@H](C3)N4C(=O)[C@@H]3CC3(F)F)n2)cn1 (10 µM) 0, CC(C)=CC(=O)CCC(=O)N1CCN(Cc2cc3nc(-c4cccc5[nH]ncc45)nc(N4CCOCC4)c3s2)CC1 (10 µM) 0, CN(C)CCN(Cc1ccc(Cl)cc1)c1ccccn1 [Chloropyramine hydrochloride] (10 µM) 0, COc1cc([N+](=O)[O-])ccc1S(=O)(=O)N1C[C@@H](CN2CCN(c3ccccn3)CC2)[C@H](c2cccc(F)c2)C1 (relative stereo) (10 µM) 0, Cc1noc(C)c1-c1ccc(-c2cc(C(N)=O)c(NC(N)=O)s2)c(O[C@H]2CCNC2)c1 (10 µM) 0, CC(C)(C)NC(=O)c1cncn1C1CCN(c2ccc(-c3nnc(C(F)(F)F)o3)cn2)CC1 (10 µM) 0, COc1cccc(-n2c(=O)[nH]c3cc(Cl)n(-c4ccc(-c5cccc(OC)c5O)cc4)c3c2=O)c1 (2.5 µM) 0, O=C(Nc1cccnc1)c1cc(C(=O)c2c(F)cccc2Br)c[nH]1 (10 µM) 0, O=C(Nc1cc(Oc2cc(F)c(NC(=O)C3(C(=O)Nc4ccc(F)cc4)CC3)cc2F)ccn1)C1CC1 [Altiratinib] (10 µM) 0, O=C1NC(=O)C(=Cc2ccc(-c3ccc(F)cc3)o2)S1 (stereo in doubt) (10 µM) 0, O=C(NC(NC(=S)Nc1ccc(F)c([N+](=O)[O-])c1)C(Cl)(Cl)Cl)C(c1ccccc1)c1ccccc1 (stereo not drawn) (10 µM) 0, Nc1ncnc2c1ncn2[C@@H]1O[C@H](CO)C[C@H]1O [Cordycepin] (10 µM) 0, CC(C)(NS(=O)(=O)c1ccc2c(Cl)cnc(N=C(N)N)c2c1)C(=O)O (10 µM) 0, COc1cc2ncnc(Nc3cccc(Cl)c3)c2cc1OC (10 µM) 0, CCOc1ccc(C(=O)Nc2ncc([N+](=O)[O-])s2)cc1 (10 µM) 0, CC(C)CN[C@H]1CS(=O)(=O)C[C@@H]1S(=O)(=O)c1ccc(Cl)cc1 (10 µM) 0, CCn1c(=O)c(-c2ccc(-c3cncs3)cc2Cl)cc2cnc(Nc3ccc(N4CCN(C)CC4)cc3)nc21 (2.5 µM) 0, C[C@]1(O)CCC[C@@H]1n1c(=O)c(C(F)F)cc2cnc(NC3CCN(S(C)(=O)=O)CC3)nc21 (10 µM) 0, COc1c(NC(=O)C(=O)c2ccc(OCCN3CCOCC3)c3ccccc23)cc(C(C)(C)C)cc1NS(C)(=O)=O (2.5 µM) 0, COc1cc(S(C)(=O)=O)ccc1Nc1nc2ccc(-c3ccc(NC(=O)[C@H](C)c4ccc(F)cc4)cc3)cn2n1 [Empesertib] (10 µM) 0, Nc1cc(Nc2ccc(S(N)(=O)=O)cc2)ncn1 (10 µM) 0, O=C(O)c1cc(O)ccc1O [2,5-Dihydroxybenzoic acid] (10 µM) 0, OCCNC1CCCc2c1[nH]c1ccc(-c3ccccc3)cc21 (stereo not drawn) (2.5 µM) 0, CC(C)CC1(O)CCN(C(=O)c2ccc(NS(=O)(=O)c3cccc4nccnc34)cc2)CC1 (10 µM) 0, CNC(=O)c1ccc(-c2cnc3cnc(C(=O)N(C)c4ccc(Cl)cc4)cn23)cc1 (2.5 µM) 0, Cc1cc(Nc2cc(Cl)nc(Oc3ccc([N+](=O)[O-])cc3)n2)n[nH]1 [Autophinib] (2.5 µM) 0, CN1CCN(c2ccc(Nc3ncc4nc(Nc5ccccc5)n([C@@H]5CCN(S(=O)(=O)C6CC6)C5)c4n3)cc2)CC1 (2.5 µM) 0, Cc1c(CN2CCN(S(C)(=O)=O)CC2)sc2c(N3CCOCC3)nc(-c3cnc(N)nc3)nc12 (2.5 µM) 0, O=C(NCCCNc1nc(Nc2cccc(NC(=O)N3CCCC3)c2)ncc1I)c1cccs1 (2.5 µM) 0, O=C(/C=C/c1ccc(O[C@@H]2O[C@H](CO)[C@@H](O)[C@H](O)[C@H]2O[C@@H]2OC[C@](O)(CO)[C@H]2O)cc1)c1ccc(O)cc1O [Isoliquiritin apioside] (10 µM) 0, O=C1NC(=O)/C(=C/c2ccc3c(c2)OC(F)(F)O3)S1 (10 µM) 0, COc1ccc([C@@H]2CC(=O)c3c(O)cc(O)cc3O2)cc1O [Hesperetin] (10 µM) 0, N#Cc1c(-c2ccccc2)cc(-c2cc(Br)ccc2O)[nH]c1=O (10 µM) 0, Cc1c(CN2CCN(C(=O)[C@H](C)O)CC2)sc2c(N3CCOCC3)nc(-c3cnc(N)nc3)nc12 [Apitolisib] (10 µM) 0, NC1(Cc2ccc(Cl)cc2)CCN(c2ncnc3[nH]ccc23)CC1 (10 µM) 0, O=C(/C=C/c1ccc(O)c(O)c1)c1ccc(O[C@@H]2O[C@H](CO)[C@@H](O)[C@H](O)[C@H]2O)c(O)c1O [Marein] (10 µM) 0, CN(CC(=O)N(Cc1ccc(C2CCCCC2)cc1)c1ccc(C(=O)O)cc1)S(=O)(=O)c1c(F)c(F)c(F)c(F)c1F (2.5 µM) 0, CC(C)NC(=O)N1CC[C@H](NC2=Nc3cc(F)ccc3N(CC(F)F)c3ccc(Cl)cc32)C1 (10 µM) 0
